Data source: PubChem BioAssay AID1259405 (NCATS, 2018)
Screen: 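Silenced genes that increase secreted GFP made by CHO cells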 (primary screen). System: Chinese hamster CHO-K1 ovary cells with stable secreted eGFP expression. Knock-down reagent: single siRNA against mouse genes, 0.8 pmol siRNA per well (2 µl of 400 nM stock). Duration: 3 days. Read-out: 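Percent of the per-plate non-targeting control median for intracellular GFP per well by laser scanning cytometry and for cell viability by ATP luminescence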. Reading the numbers: GFP, % of control: higher = more GFP per well, higher productivity; viability (ATP), % of control: higher = more viable cells (more ATP). Active means: 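a knock-down is called active if GFP reaches 120% or more of non-targeting control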.
Here is one part, drawn at random, of about 50,000 reagents. Of all reagents, about 4,000 (8%) were called active. 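Mouse siRNA library applied to hamster cells; one well for each siRNA.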 Reagents against one gene are numbered here.

no.	gene	reagent no.	GFP, % of control	viability (ATP), % of control	call
1	Armc8	1	59.4	54.8	inactive
2	Armc8	2	65.8	80.3	inactive
3	Armc8	3	111	96.8	inactive
4	Crb3	1	63.6	56	inactive
5	Crb3	2	65.5	58.6	inactive
6	Crb3	3	109	104	inactive
7	Myom1	1	64.7	54.9	inactive
8	Myom1	2	50.4	59.1	inactive
9	Myom1	3	32.3	46.4	inactive
10	Tespa1	1	72.8	72.2	inactive
11	Tespa1	2	94.2	71.6	inactive
12	Tespa1	3	70.9	63.6	inactive
13	Krt79	1	43.8	60.8	inactive
14	Krt79	2	63.2	68.3	inactive
15	Dpy30	1	78.6	75.6	inactive
16	Dpy30	2	83.5	92.7	inactive
17	Dpy30	3	94.3	74.4	inactive
18	Ca4	1	92.7	105	inactive
19	Ca4	2	68.2	71	inactive
20	Ppp4c	1	79.9	155	inactive
21	Ppp4c	2	97.7	85.5	inactive
22	Lpp	1	88.4	89.1	inactive
23	Lpp	2	96.8	97.3	inactive
24	Crp	1	91.8	96.3	inactive
25	Crp	2	31.1	63.4	inactive
26	Ndc80	1	121	48.7	active
27	Ndc80	2	70.8	40.6	inactive
28	Ndc80	3	104	85.2	inactive
29	Ccdc177	1	69.9	77	inactive
30	Ccdc177	2	111	60.4	inactive
31	Ccdc177	3	97.4	84.7	inactive
32	Rps6ka6	1	108	121	inactive
33	Rps6ka6	2	78.3	52.4	inactive
34	Rps6ka6	3	80.3	85.7	inactive
